According to publication PMC3282788:
Where a chain is given by its changes, count along the chain named. Numbers in names are those of the source. No constants are given. Whether binding was seen depends on the method and setting. Binding seen in cells or lysates may run through a third protein. Some entries that bind do so weakly or less than the wild type. Where a sequence is shown, tags or fusion partners need not be part of it. One block for each binder: values may come before it.

Columns and labels:
EGFP-Vangl1 (mouse) = molecular target: T1, EGFP-Vangl1 (mouse) (UniProt Q80Z96); assay: co-IP; anti-GFP antibody on protein G beads with lysates of co-electroporated MDCK cells (25 mM Tris pH 7.4, 1% Triton X-100, 50 mM NaCl, protease inhibitors); absorbed at 4°C; HA blot of the precipitate
T1 sequence: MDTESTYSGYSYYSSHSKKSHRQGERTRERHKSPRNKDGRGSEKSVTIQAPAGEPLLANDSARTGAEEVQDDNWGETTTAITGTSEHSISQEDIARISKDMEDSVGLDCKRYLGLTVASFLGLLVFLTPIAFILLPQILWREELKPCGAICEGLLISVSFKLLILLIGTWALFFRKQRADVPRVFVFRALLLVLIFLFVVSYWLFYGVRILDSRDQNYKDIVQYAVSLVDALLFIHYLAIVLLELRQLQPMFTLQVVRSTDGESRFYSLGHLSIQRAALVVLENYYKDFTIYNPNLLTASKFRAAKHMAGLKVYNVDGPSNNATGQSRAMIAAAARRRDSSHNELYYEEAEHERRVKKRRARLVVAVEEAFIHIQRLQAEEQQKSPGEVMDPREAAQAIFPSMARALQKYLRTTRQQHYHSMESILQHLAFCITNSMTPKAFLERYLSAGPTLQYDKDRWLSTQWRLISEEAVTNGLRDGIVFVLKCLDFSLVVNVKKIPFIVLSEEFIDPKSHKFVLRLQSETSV

EGFP-Vangl2 (mouse) = molecular target: T2, EGFP-Vangl2 (mouse) (UniProt Q91ZD4); assay: as above
T2 sequence: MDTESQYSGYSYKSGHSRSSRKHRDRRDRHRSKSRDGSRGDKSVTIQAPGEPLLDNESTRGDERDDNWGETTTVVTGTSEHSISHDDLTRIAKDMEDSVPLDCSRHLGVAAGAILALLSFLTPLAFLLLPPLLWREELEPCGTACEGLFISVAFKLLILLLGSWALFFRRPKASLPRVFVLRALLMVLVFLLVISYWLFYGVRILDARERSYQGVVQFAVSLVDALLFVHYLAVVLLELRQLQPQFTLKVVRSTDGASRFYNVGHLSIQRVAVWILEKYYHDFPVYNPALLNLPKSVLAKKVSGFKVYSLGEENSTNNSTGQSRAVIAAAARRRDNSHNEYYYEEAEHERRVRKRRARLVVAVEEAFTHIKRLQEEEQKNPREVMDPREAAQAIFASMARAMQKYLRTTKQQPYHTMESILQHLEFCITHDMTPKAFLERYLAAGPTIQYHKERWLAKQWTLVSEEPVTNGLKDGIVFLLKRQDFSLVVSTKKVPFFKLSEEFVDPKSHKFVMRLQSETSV

- binding (EGFP-Vangl1 (mouse)): binds
- binding (EGFP-Vangl2 (mouse)): binds
B1: 3XHA-Vangl2 (protein, UniProt Q91ZD4 1-521)
chain: T2 sequence

- binding (EGFP-Vangl1 (mouse)): binds
- binding (EGFP-Vangl2 (mouse)): binds
B2: 3XHA-Vangl2^S464N (protein, UniProt Q91ZD4 1-521)
chain: T2 sequence with S464N
